Reference: US20130023532A1, “INDAZOLYL-PYRIMIDINES AS KINASE INHIBITORS” (priority 2010, published 2013)
Some entries share one result that the patent states for a list of compounds. For at least one compound, name, drawing or mass did not settle the structure.

The chains behind the UniProt entries cited, without tags or fusion partners.
UniProt O43353, whole entry: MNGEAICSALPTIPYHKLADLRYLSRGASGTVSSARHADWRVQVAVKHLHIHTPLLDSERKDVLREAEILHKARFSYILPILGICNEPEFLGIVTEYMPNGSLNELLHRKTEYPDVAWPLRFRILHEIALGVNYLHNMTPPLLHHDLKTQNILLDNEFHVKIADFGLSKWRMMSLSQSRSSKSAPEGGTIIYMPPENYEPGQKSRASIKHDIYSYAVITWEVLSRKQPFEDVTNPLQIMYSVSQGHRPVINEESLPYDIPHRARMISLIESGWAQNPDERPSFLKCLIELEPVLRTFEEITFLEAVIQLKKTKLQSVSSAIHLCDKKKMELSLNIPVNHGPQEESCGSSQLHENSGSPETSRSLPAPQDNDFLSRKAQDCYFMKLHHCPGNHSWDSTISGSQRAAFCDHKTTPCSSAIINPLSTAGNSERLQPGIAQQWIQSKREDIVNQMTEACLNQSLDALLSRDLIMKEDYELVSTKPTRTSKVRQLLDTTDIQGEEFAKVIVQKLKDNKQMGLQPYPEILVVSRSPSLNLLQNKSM

The compounds below were run against T1, RIPK2 (Homo sapiens, UniProt O43353) (assay: Fluorescent polarization based binding assay at the ATP binding pocket of RIPK2). Details: FP competition with fluorescently labeled ATP competitive ligand (5 nM); full length FLAG His tagged RIPK2; mean of a minimum of 2 experiments.
T1 construct: Full length FLAG His tagged RIPK2 was purified from a Baculovirus expression system; FLAG (N); 6His (N); made in house; host or cells: Spodoptera frugiperda (Sf9) insect cells, baculovirus
Source text: A fluorescent polarization based binding assay was developed to quantitate interaction of novel test compounds at the ATP binding pocket of RIPK2, by competition with a fluorescently labeled ATP competitive ligand. Full length FLAG His tagged RIPK2 was purified from a Baculovirus expression system and was used at a final assay concentration of twice the KDapparent. A fluorescent labeled ligand (5-({[2-({[3-({4-[(5-hydroxy-2-methylphenyl)amino]-2-pyrimidinyl}amino)phenyl]carbonyl}amino)ethyl]amino}carbonyl)-2-(6-hydroxy-3-oxo-3H-xanthen-9-yl)benzoic acid, prepared as described below) was used at a final assay concentration of 5 nM. Both the enzyme and ligand were prepared in solutions in 50 mM HEPES pH7.5, 150 mM NaCl, 10 mM MgCl2, 1 mM DTT, and 1 mM CHAPS. Test compounds were prepared in 100% DMSO and 100 nL was dispensed to individual wells of a multiwell plate. Next, 5 ul RIPK2 was added to the test compounds at twice the final assay concentration, and incubated at room temperature for 10 minutes. Following the incubation, 5 ul of the fluorescent labeled ligand solution, was added to each reaction, at twice the final assay concentration, and incubated at room temperature for at least 10 minutes. Finally, samples were read on an instrument capable of measuring fluorescent polarization. Test compound inhibition was expressed as percent (%) inhibition of internal assay controls.
For concentration response experiments, normalized data were fit and pIC50 s determined using conventional techniques. For example, the following four parameter logistic equation may be used: y=A+((B−C))/(1+(10^x)/(10^C)^D), where: y is the % activity (% inhibition) at a specified compound concentration; A is the minimum % activity; B is the maximum % activity; C=log10(IC50); D=Hill slope; x=log10 (compound concentration [M]); and pIC50=(—C).
The pIC50s are averaged to determine a mean value, for a minimum of 2 experiments.
Full-length human RIPK2 (receptor-interacting serine-threonine kinase 2) cDNA was purchased from Invitrogen (Carlsbad, Calif., USA, Clone ID:IOH6368, RIPK2-pENTR 221). […]

Compound	mean pIC50
CN1CCN(c2ccc(Nc3nccc(Nc4n[nH]c5ccccc45)n3)cc2)CC1.O=C(O)C(F)(F)F [Example 17, N^4-1H-indazoI-3-yl-N^2-[4-(4-methyl-1-piperazinyl)phenyl]-2,4-pyrimidinediamine trifluoroacetate]	greater than or equal to 6.0
Cc1ccc(Nc2nccc(N(C)c3n[nH]c4ncc(F)cc34)n2)cc1S(N)(=O)=O [Example 207, 5-({4-[(5-fluoro-1H-pyrazolo[3,4-b]pyridin-3-yl)(methyl)amino]-3-pyrimidinyl}amino)-2-methylbenzene-sulfonamide]	greater than or equal to 6.0
N4-(5-fluoro-1H- indazol-3-yl)-N2- (1-methyl-1H- imidazol-2-yl)-2,4- pyrimidinediamine [Example 70]	greater than or equal to 6.0
